# Percent effect of library compounds

Mtb glucose medium: 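Growth of Mycobacterium tuberculosis over 3 days (7H9 medium with glucose and tyloxapol); the read-out is not stated. Concentration: 500 µM. The record gives no direction; compounds that gave an IC50 in retests scored well above the rest, so higher reads as more growth inhibition. Size under these conditions: about 18,000 compounds, about 1,400 of them at 50% or above in at least one test.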
Mtb cholesterol medium: 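Whole-cell growth test on Mycobacterium tuberculosis, read after 4 days in a medium based on cholesterol and the lipid DPPC; the read-out is not stated. Compounds at 500 µM. Higher reads as more growth inhibition (inferred: compounds with an IC50 in retests scored well above the rest). Size under these conditions: about 18,000 compounds, about 900 of them at 50% or above in at least one test.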

The filed quantity is “Percent Effect” (%).
The record does not define 0% and 100%; most values in the screen are far below 50% and negative numbers occur (in some assays of this library far below -100).
Compounds were drawn at random from those tested, without regard to their results.

{"compound": "COc1c(C)cccc1CN", "Mtb glucose medium": 6.58, "Mtb cholesterol medium": 3.06}
{"compound": "NCc1ccc(C(=O)N2CCN(C3CC3)C(=O)C2)cc1", "Mtb glucose medium": 39.62, "Mtb cholesterol medium": -1.827}
{"compound": "CCCc1ccc(C(=O)N2CCCN(C)CC2)cc1", "Mtb glucose medium": 76.2, "Mtb cholesterol medium": 57.52}
{"compound": "CSCCc1nc(CC2CCS(=O)(=O)C2)n(CCO)n1", "stereo": "stereo not given", "Mtb glucose medium": 0.6413, "Mtb cholesterol medium": 4.734}
{"compound": "CN(C)CC(=O)NC(C)(CO)C1CCCCC1", "stereo": "stereo not given", "Mtb glucose medium": -5.769, "Mtb cholesterol medium": -3.997}
{"compound": "CC(C)CC1NCCNC1=O", "stereo": "stereo not given", "Mtb glucose medium": 2.471, "Mtb cholesterol medium": -3.927}
{"compound": "CSCc1ccc(C(=O)NCCCc2ncc[nH]2)o1", "Mtb glucose medium": 18.72, "Mtb cholesterol medium": 11.29}
{"compound": "Cn1ccc(C(=O)NCCOC2CCCCC2)cc1=O", "Mtb glucose medium": 37.38, "Mtb cholesterol medium": 21.95}
{"compound": "CCC(C)(CCO)NC(=O)c1[nH]nc2c1CCCC2", "stereo": "stereo not given", "Mtb glucose medium": 7.451, "Mtb cholesterol medium": -4.706}
{"compound": "CC[C@H](N)C(=O)N1CCCc2cc(OC)ccc2C1", "Mtb glucose medium": 28.86, "Mtb cholesterol medium": 11}
{"compound": "COc1cccc2c1OCC(CNC(=O)CN(C)C)C2", "stereo": "stereo not given", "Mtb glucose medium": 14.82, "Mtb cholesterol medium": 12.72}
{"compound": "Cc1ccc(NC(=O)CCNS(C)(=O)=O)c(F)c1", "Mtb glucose medium": 4.906, "Mtb cholesterol medium": -0.5046}
{"compound": "CC1(C)CN(C(=O)c2cccn2C2CC2)C[C@]1(C)O", "Mtb glucose medium": 10.06, "Mtb cholesterol medium": -1.498}
{"compound": "CCc1cc(N2CCN(Cc3ncc[nH]3)CC2)ncn1", "Mtb glucose medium": 21.46, "Mtb cholesterol medium": 7.213}
{"compound": "CC(C)(C)OC(=O)Nc1ccc(C(N)=O)cc1", "Mtb glucose medium": 0.9895, "Mtb cholesterol medium": -1.852}
{"compound": "O=C(c1cncc(Cl)c1)N1CCCC1c1ccccn1", "stereo": "stereo not given", "Mtb glucose medium": 10.5, "Mtb cholesterol medium": 6.756}
{"compound": "CNCCc1nc2cc(OC)ccc2[nH]1", "Mtb glucose medium": 18.28, "Mtb cholesterol medium": 31.35}
{"compound": "Cn1ccnc1CC1CCCN(S(C)(=O)=O)C1", "stereo": "stereo not given", "Mtb glucose medium": 2.955, "Mtb cholesterol medium": -4.022}
{"compound": "Cc1cc2c(cc1C(N)=O)OCCCO2", "Mtb glucose medium": 3.395, "Mtb cholesterol medium": -7.848}
{"compound": "CC(C)CCC(O)CN1CCCN(C(N)=O)CC1", "stereo": "stereo not given", "Mtb glucose medium": 28.15, "Mtb cholesterol medium": 12.15}
{"compound": "Cc1cc(Br)ccc1OCCNCCN", "Mtb glucose medium": -6.88, "Mtb cholesterol medium": 3.868}
{"compound": "O=C(Nc1ncccn1)c1ccc(Br)o1", "Mtb glucose medium": 33.17, "Mtb cholesterol medium": 23.14}
{"compound": "NC(=O)c1ccc(C(=O)OC2CCCCC2)nc1", "Mtb glucose medium": 2.027, "Mtb cholesterol medium": 6.238}
{"compound": "Cc1ccc(S(=O)(=O)NCCN)cc1C(F)(F)F", "Mtb glucose medium": 69.51, "Mtb cholesterol medium": 52.28}
{"compound": "CN1CCCN(C(=O)COc2ccc(Br)cc2)CC1", "Mtb glucose medium": 25.22, "Mtb cholesterol medium": 10.51}
{"compound": "N#Cc1ncn(CCOC(=O)Nc2ccccc2)n1", "Mtb glucose medium": 19.19, "Mtb cholesterol medium": 21.06}
{"compound": "CCC(NC(=O)c1cc(=O)cc(C)o1)c1ccnn1C", "stereo": "stereo not given", "Mtb glucose medium": -9.009, "Mtb cholesterol medium": -13.31}
{"compound": "COc1ccc(NC(=O)CNC(=O)C(C)(C)C)cc1", "Mtb glucose medium": 25.44, "Mtb cholesterol medium": -12.31}
{"compound": "NC1CCCN(c2ccncn2)C1", "stereo": "stereo not given", "Mtb glucose medium": -6.875, "Mtb cholesterol medium": -8.443}
{"compound": "CC(C)N(CC(N)=O)CC(=O)N(C)Cc1cccs1", "Mtb glucose medium": 15.43, "Mtb cholesterol medium": 2.319}
{"compound": "CCn1c(SCC(=O)NC2CC2)nc2ccsc2c1=O", "Mtb glucose medium": 1.364, "Mtb cholesterol medium": 0.6541}
{"compound": "CCc1cccc2c(C(C)=O)cn(CC(N)=O)c12", "Mtb glucose medium": 19.78, "Mtb cholesterol medium": 8.651}
{"compound": "CCC1(O)CN(c2ncc(Cl)cn2)C1", "Mtb glucose medium": 45.28, "Mtb cholesterol medium": 25.9}
{"compound": "CC(C)[C@H]1CN(S(=O)(=O)N2CCCCCC2)C[C@@H]1N", "Mtb glucose medium": 38.16, "Mtb cholesterol medium": 19.18}
{"compound": "COc1cccc(CNC(=O)C(C)n2ccnc2)c1", "stereo": "stereo not given", "Mtb glucose medium": 27.05, "Mtb cholesterol medium": -8.161}
{"compound": "COc1ncccc1C(=O)NCC(=O)N1CCCC1", "Mtb glucose medium": 8.178, "Mtb cholesterol medium": -2.033}
{"compound": "COC(=O)c1ccc(OCC(N)=O)c(Br)c1", "Mtb glucose medium": -7.035, "Mtb cholesterol medium": 10.05}
{"compound": "CN(C)c1ncccc1CNC(=O)C1CCOCC1", "Mtb glucose medium": 7.107, "Mtb cholesterol medium": -7.412}
{"compound": "CN(C)c1ncc(CNC(=O)C2(C)CCC2)n1C", "Mtb glucose medium": 8.916, "Mtb cholesterol medium": -1.95}
{"compound": "Cc1oc(C)c(C(=O)NCCCNS(C)(=O)=O)c1C", "Mtb glucose medium": -30.77, "Mtb cholesterol medium": -20.33}
{"compound": "CCN1CCN(Cc2cc(C(C)=O)ccc2OC)CC1", "Mtb glucose medium": 56.03, "Mtb cholesterol medium": 18.29}
{"compound": "CCCN(CCOC)CC(=O)N(C)C", "Mtb glucose medium": -7.56, "Mtb cholesterol medium": -0.9304}
{"compound": "Cc1ccc(CN(C)Cc2nccn2C)nc1", "Mtb glucose medium": 32.3, "Mtb cholesterol medium": 0.008237}
{"compound": "Cc1cc(C)cc(NC(=O)NCC2(O)CCNC2)c1", "stereo": "stereo not given", "Mtb glucose medium": 35.19, "Mtb cholesterol medium": 20.82}
{"compound": "CN(c1ccccc1F)S(=O)(=O)CC1CCCOC1", "stereo": "stereo not given", "Mtb glucose medium": 48.68, "Mtb cholesterol medium": 42.27}
{"compound": "O=C(CCN1CCN(CCO)CC1)Nc1ccccc1", "Mtb glucose medium": 8.999, "Mtb cholesterol medium": 1.971}
{"compound": "O=C1NC(c2cc[nH]n2)Nc2ncccc21", "stereo": "stereo not given", "Mtb glucose medium": 2.326, "Mtb cholesterol medium": -9.851}
{"compound": "CCCn1cc(NC(=O)c2ccc(O)nc2)ccc1=O", "Mtb glucose medium": 0.5908, "Mtb cholesterol medium": 0.3032}

Repeated from the top, 3 entries:

{"compound": "COc1c(C)cccc1CN", "Mtb glucose medium": 6.58, "Mtb cholesterol medium": 3.06}
{"compound": "NCc1ccc(C(=O)N2CCN(C3CC3)C(=O)C2)cc1", "Mtb glucose medium": 39.62, "Mtb cholesterol medium": -1.827}
{"compound": "CCCc1ccc(C(=O)N2CCCN(C)CC2)cc1", "Mtb glucose medium": 76.2, "Mtb cholesterol medium": 57.52}

Source: ChEMBL document CHEMBL3988442, “University of Dundee, Small-Polar-MMV Screening Library” (2021).